Measurements reported in PubChem BioAssay AID686943 (Drosophila RNAi Screening Center, 2013).

Screen: 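Fly genes whose loss alters ERK activation after insulin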 (primary screen)
System: Drosophila S2R+ haemocyte-like cells expressing YFP-tagged ERK (Rolled)
Reagents: long dsRNA against Drosophila genes
Challenge: insulin stimulation versus unstimulated cells; dose and duration not given
Read-out: 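Per-plate z-scores of phospho-ERK immunostaining normalised to YFP-tagged ERK, measured with and without insulin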
Scale: replicate 1, z-score of dpERK with insulin and replicate 2, z-score of dpERK with insulin: higher = more active ERK per ERK-YFP after insulin; replicate 1, z-score of dpERK under basal conditions: higher = more basal active ERK per ERK-YFP
The deposit covers about 23,000 reagents; below is a random part of those that have a named target and a result. 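Extra replicates exist only for a retested subset of genes; insulin dose and duration not given; both raised and lowered dpERK matter.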 Names joined by + are all predicted targets of the reagent. Further read-outs or replicates are left out here. The record does not give: the amount of reagent, the time to read-out.

no.	target	dsRNA	replicate 1, z-score of dpERK with insulin	replicate 2, z-score of dpERK with insulin	replicate 1, z-score of dpERK under basal conditions
1	Shawl	DRSC02209	2.02	0.26	0.37
2	Shawl	DRSC02748	0.17	0.56	0.53
3	CG30172	DRSC21519	0.42	0.52	0.62
4	MtnC	DRSC22879	0.29	1.48	0.01
5	VAChT	DRSC13311	-0.26	-0.06	-0.67
6	VAChT	DRSC16608	-0.45	0.29	-0.93
7	CG7069	DRSC16188	-0.19	-0.76	0.06
8	nenya	DRSC13838	-0.07	0.47	0.52
9	CG31199	DRSC15284	0.32	-0.08	-0.02
10	CG7300	DRSC03044	0.44	0.85	-0.1
11	CG13364	DRSC17898	0.32	0.58	0.34
12	CG13364	DRSC21263	-2.38	-0.22	-0.95
13	GstE3	DRSC06673	-0.8	0.56	-0.1
14	CSN5	DRSC16592	0.6	0.5	-0.19
15	CSN5	DRSC22381	0.68	-0.68	0.98
16	fl(2)d	DRSC07620	-0.92	-0.93	0.14
17	spoon	DRSC18299	1.01	0.02	1.62
18	m-cup	DRSC14430	0.2	0.92	0.02
19	CG33500	DRSC09115	-2.21	-1.91	0.06
20	CG18748	DRSC15385	0.27	0.01	-0.53
21	CG10646	DRSC09764	-0.3	0.28	-0.62
22	nvy	DRSC04705	0.61	0.81	0.68
23	Polr2G	DRSC16068	3.59	2.81	4.22
24	Dlg5	DRSC02964	1.08	-0.14	-0.86
25	CG3223	DRSC15468	-0.99	0.99	-1.43
26	Rab9Db + Rab9D + Rab9Fa + 1 more	DRSC17662	-0.17	0.01	-0.42
27	CG14223	DRSC19580	-0.35	-0.04	-0.1
28	ais	DRSC10523	-0.11	-0.64	0.78
29	kcc	DRSC04316	0.45	0.52	0.13
30	kcc	DRSC04516	-0.44	0.83	-0.31
31	Fancd2	DRSC15208	0.61	0.19	0.16
32	Fancd2	DRSC22763	-0.2	0.02	0.25
33	Lip2	DRSC02577	0.16	0.63	0.25
34	Lip2	DRSC02578	0.2	0.33	-0.07
35	CG16926	DRSC06637	0.54	-0.1	1.47
36	CG15812	DRSC08479	-1.39	-0.79	0.38
37	RpL24-like	DRSC16111	-0.36	-0.42	-1.86
38	how	DRSC16966	-2.27	-3.35	-1.97
39	euc	DRSC14492	0.26	-1.34	0.42
40	Letm1	DRSC04476	0.21	-0.1	-0.55
41	SMC3	DRSC20227	0.05	0.56	-0.6
42	Sol1	DRSC15263	0.3	0.14	0.09
43	Sol1	DRSC15271	0.29	0.26	-0.31
44	Sol1	DRSC15681	0.04	-0.95	0.43
45	CG9825	DRSC04569	-0.6	0.31	-0.05
46	CG3857	DRSC18542	-0.57	-0.94	-1.84
47	ftz	DRSC12626	-0.84	0.29	-0.69
48	CG13724	DRSC10053	0.23	0.63	-1.06
49	CG12914	DRSC06229	0.44	0.48	0.05
50	Pglym87	DRSC15252	-0.52	-0.11	-0.33
51	RnrS	DRSC07533	-4.55	-1.72	-1.52
52	Mur11Da	DRSC18960	1.05	1.13	1.21
53	S-Lap4	DRSC10957	-0.78	0.73	-0.74
54	sna	DRSC03613	0.94	0.48	1.02
55	CG14759	DRSC06494	0.34	0.16	-0.05
56	CG6761	DRSC10705	1.27	0.89	0.07
57	raw	DRSC03599	-6.97	-4.88	-0.79
58	raw	DRSC03600	-3.84	-3.18	-0.97

Sorted by “replicate 1, z-score of dpERK with insulin” (highest first): some entries from above
target	dsRNA	replicate 1, z-score of dpERK with insulin	replicate 2, z-score of dpERK with insulin	replicate 1, z-score of dpERK under basal conditions
spoon	DRSC18299	1.01	0.02	1.62
CSN5	DRSC22381	0.68	-0.68	0.98
CG18748	DRSC15385	0.27	0.01	-0.53
m-cup	DRSC14430	0.2	0.92	0.02
CG10646	DRSC09764	-0.3	0.28	-0.62
fl(2)d	DRSC07620	-0.92	-0.93	0.14
CG33500	DRSC09115	-2.21	-1.91	0.06
